Assay [1] concerns the target SARS-CoV-2 nsp14, Strep II-tagged (SARS-CoV-2) (UniProt P0DTD1). The assay is described as follows: co-IP.
In assay [2] the target is SARS-CoV-2 nsp10, Strep II-tagged (SARS-CoV-2) (UniProt P0DTD1). In words: co-IP.

Protein sequences, listed by entry. Tags and fused reporters are not part of them. Residues count along the entry.
UniProt P38646, residues 47-679: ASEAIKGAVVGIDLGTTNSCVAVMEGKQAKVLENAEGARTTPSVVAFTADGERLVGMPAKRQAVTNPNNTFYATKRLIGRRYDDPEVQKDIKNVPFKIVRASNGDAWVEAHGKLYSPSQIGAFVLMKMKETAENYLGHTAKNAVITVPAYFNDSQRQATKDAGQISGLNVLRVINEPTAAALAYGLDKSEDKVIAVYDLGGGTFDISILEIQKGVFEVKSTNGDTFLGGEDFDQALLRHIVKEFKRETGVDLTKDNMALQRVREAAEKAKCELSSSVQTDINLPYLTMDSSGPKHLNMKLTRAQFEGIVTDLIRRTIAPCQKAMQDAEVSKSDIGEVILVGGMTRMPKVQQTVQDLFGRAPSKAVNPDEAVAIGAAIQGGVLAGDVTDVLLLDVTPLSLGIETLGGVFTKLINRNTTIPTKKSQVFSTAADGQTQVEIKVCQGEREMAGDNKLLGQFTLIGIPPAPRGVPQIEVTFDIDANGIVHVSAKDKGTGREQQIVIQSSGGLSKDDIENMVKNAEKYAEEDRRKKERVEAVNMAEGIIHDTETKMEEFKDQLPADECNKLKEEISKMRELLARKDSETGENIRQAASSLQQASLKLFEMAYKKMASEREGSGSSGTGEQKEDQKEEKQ

The source of these data is article PMC12356973.

No constants are given. Whether binding was seen depends on the method and setting. In cells and extracts the contact can be indirect. Some binding calls cover weakened binding; strength is not graded here.

For HSPA9 (from UniProt P38646 47-679), the binding result in assay [1] is given as “binds”.

For PCBP1 (from UniProt Q15365 1-356), the binding entry in assay [1] and in assay [2] was “binds” in each case.

B1: BOLA2 (protein, UniProt Q9H3K6 1-86)
chain: MELSAEYLREKLQRDLEAEHVEVEDTTLNRCSCSFRVLVVSAKFEGKPLLQRHRLVNACLAEELPHIHAFEQKTLTPDQWARERQK
For B1, the binding entry in assay [1] and in assay [2] was “binds” in each case.
